Data from the supplement of paper PMC10849652.
The list shows a part of the results.

Sequences of proteins named here, by UniProt entry; tags and fusion partners are left off. A change or cut given only in a name is not applied to a line headed by its entry.
UniProt O14936: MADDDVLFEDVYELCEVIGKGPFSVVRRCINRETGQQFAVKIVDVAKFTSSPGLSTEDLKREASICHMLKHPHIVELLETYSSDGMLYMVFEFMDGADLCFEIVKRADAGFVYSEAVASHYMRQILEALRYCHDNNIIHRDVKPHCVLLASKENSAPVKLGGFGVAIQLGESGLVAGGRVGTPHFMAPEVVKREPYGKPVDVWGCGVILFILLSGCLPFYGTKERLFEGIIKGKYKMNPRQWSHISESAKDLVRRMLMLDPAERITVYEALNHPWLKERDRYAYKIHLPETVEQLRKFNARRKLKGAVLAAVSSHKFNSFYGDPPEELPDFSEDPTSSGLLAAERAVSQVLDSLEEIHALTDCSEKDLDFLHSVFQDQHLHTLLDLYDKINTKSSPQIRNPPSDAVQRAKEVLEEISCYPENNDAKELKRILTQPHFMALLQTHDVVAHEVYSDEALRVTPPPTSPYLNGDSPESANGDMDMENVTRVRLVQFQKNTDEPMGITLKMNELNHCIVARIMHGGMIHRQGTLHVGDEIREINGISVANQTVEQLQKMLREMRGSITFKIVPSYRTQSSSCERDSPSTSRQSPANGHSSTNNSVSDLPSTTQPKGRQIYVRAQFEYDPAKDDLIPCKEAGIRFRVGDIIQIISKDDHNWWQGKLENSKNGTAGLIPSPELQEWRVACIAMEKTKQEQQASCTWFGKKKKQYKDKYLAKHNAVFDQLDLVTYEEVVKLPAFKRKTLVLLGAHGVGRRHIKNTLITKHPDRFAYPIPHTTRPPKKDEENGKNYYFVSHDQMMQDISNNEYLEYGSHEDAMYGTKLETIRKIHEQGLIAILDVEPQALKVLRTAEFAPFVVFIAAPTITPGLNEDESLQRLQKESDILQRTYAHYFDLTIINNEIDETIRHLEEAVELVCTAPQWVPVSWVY
UniProt Q2TAC2: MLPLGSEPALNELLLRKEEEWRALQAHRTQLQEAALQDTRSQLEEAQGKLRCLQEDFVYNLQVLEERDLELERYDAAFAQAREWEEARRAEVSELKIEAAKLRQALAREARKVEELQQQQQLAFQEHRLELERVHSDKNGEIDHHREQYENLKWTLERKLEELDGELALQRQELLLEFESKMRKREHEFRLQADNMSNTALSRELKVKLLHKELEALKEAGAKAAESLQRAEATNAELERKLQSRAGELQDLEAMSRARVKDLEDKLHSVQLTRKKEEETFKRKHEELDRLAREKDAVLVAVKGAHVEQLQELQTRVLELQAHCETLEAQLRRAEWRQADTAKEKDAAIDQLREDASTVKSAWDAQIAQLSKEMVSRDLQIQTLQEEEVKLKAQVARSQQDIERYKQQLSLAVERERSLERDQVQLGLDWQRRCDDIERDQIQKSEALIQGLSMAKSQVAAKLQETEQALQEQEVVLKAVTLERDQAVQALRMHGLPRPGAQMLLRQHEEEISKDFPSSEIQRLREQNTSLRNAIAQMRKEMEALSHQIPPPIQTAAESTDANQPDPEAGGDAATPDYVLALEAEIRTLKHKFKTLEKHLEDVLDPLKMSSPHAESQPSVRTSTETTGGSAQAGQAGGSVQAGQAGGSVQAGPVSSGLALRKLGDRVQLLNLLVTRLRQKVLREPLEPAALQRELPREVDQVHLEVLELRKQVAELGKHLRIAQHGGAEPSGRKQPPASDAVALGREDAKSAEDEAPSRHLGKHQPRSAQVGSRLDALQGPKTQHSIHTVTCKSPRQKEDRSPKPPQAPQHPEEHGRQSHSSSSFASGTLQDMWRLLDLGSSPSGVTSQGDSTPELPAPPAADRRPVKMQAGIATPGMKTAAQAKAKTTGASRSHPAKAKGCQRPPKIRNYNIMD
UniProt O95810: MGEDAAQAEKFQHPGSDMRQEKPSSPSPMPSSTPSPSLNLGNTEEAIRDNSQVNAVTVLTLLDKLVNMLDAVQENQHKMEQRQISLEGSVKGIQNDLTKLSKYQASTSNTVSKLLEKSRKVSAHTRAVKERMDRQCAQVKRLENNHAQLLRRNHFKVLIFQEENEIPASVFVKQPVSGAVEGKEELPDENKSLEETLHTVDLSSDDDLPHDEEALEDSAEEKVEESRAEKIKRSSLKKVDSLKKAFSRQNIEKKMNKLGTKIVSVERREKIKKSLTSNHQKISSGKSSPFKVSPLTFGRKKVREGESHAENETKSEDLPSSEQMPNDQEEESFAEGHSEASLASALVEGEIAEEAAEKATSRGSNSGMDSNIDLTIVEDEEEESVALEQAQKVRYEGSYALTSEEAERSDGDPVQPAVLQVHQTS
UniProt P50990: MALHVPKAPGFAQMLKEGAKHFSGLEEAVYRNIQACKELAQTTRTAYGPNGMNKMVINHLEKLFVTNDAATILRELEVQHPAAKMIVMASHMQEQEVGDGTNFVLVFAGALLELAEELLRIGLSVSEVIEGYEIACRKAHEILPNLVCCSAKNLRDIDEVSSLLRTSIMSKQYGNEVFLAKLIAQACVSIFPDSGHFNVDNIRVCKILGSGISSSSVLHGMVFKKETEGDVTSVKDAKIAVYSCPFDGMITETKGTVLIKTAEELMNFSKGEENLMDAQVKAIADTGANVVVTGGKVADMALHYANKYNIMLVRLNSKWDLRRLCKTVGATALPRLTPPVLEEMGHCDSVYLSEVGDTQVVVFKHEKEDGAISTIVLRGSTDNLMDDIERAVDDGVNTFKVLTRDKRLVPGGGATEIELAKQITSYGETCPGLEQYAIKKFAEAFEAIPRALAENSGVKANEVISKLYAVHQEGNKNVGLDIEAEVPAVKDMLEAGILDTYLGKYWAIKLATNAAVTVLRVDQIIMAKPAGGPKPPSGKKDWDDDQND
UniProt Q6P1N0: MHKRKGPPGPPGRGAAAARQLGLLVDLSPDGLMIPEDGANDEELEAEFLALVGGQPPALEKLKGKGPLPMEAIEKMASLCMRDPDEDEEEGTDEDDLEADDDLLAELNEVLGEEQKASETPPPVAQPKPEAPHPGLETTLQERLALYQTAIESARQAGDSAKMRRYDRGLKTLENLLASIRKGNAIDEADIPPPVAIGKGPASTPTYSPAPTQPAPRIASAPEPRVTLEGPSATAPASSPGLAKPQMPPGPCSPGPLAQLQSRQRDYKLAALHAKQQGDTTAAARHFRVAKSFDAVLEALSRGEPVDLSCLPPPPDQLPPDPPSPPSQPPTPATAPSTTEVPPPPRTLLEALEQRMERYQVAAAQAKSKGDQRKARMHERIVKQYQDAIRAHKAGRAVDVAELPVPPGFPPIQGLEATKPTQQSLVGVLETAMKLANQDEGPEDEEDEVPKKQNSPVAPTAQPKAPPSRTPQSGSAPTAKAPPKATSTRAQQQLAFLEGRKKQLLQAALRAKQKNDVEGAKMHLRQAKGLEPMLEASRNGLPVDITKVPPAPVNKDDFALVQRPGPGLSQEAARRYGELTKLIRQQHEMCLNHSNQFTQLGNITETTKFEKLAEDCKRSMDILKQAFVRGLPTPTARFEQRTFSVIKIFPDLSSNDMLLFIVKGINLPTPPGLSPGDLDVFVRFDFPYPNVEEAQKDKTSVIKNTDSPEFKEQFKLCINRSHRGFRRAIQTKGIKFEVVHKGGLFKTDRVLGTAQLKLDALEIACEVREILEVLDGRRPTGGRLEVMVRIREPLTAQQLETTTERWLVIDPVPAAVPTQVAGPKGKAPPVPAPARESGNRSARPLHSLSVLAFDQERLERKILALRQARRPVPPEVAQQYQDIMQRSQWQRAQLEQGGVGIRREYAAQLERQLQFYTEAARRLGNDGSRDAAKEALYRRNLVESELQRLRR
UniProt Q9H6E4: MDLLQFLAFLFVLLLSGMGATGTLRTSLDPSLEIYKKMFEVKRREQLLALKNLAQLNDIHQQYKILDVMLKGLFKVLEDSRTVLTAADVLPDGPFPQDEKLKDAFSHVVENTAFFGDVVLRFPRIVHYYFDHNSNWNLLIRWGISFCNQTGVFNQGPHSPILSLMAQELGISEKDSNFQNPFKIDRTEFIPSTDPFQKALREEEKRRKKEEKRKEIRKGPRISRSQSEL
UniProt O95067, whole entry, looked up: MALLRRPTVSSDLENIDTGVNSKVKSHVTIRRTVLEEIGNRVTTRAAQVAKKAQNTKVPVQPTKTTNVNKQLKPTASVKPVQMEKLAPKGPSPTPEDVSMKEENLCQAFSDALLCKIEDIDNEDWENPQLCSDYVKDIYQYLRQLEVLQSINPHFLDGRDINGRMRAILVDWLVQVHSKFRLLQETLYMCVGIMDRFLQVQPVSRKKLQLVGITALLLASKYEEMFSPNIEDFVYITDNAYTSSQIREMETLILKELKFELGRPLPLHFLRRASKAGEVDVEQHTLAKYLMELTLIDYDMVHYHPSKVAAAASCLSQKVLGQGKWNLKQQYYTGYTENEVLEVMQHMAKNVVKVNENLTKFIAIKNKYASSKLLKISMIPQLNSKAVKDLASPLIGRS
UniProt P55211: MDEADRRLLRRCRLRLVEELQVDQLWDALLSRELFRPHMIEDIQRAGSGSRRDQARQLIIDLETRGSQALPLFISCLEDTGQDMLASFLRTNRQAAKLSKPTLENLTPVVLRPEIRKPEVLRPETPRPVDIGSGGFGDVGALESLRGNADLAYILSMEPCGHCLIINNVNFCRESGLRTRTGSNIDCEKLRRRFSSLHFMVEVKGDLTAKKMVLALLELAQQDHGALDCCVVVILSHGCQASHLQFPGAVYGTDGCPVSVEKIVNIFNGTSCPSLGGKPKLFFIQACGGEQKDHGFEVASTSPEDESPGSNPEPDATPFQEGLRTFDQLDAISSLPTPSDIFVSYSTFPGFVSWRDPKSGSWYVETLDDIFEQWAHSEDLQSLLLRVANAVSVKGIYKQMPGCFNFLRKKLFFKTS
UniProt P08962, whole entry, looked up: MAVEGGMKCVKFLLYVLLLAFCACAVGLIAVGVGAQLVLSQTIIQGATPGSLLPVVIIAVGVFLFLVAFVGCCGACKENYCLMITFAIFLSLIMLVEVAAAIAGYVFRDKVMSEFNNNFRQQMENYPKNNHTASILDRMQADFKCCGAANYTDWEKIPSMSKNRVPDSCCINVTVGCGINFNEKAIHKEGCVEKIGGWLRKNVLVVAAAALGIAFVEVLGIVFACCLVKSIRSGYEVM
UniProt Q96A33: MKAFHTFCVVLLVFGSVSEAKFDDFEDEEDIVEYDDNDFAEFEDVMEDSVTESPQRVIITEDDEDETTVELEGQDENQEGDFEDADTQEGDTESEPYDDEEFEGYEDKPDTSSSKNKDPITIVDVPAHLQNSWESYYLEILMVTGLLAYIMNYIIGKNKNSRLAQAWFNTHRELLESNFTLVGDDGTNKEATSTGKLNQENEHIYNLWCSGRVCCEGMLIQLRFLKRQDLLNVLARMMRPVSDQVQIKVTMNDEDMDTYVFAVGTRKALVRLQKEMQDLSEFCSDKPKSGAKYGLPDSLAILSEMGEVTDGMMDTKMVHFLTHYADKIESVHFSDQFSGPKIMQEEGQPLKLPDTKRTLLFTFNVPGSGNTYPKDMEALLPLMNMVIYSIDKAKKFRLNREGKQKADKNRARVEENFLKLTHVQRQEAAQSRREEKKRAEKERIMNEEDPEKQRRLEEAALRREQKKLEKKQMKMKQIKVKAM
UniProt Q9ULG6: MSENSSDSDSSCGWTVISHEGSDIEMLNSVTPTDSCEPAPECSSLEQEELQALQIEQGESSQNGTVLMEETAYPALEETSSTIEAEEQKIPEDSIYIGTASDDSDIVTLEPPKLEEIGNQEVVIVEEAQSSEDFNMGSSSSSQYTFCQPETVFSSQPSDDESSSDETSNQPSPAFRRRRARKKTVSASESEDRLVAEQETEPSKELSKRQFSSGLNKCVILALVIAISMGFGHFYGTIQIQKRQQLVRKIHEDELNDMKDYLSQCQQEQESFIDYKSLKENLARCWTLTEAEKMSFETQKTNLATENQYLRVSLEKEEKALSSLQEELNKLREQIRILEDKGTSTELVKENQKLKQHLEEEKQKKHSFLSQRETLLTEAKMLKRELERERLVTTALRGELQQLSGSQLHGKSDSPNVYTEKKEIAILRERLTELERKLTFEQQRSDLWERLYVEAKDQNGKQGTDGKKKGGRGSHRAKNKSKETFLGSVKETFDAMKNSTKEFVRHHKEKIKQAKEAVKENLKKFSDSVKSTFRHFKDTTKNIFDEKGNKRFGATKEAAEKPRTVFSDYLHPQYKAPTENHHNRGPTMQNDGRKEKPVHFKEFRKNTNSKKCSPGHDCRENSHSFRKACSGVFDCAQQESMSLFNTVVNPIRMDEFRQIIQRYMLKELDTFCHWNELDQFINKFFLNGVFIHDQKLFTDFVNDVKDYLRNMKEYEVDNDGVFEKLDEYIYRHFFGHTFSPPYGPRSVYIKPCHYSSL
UniProt O14618: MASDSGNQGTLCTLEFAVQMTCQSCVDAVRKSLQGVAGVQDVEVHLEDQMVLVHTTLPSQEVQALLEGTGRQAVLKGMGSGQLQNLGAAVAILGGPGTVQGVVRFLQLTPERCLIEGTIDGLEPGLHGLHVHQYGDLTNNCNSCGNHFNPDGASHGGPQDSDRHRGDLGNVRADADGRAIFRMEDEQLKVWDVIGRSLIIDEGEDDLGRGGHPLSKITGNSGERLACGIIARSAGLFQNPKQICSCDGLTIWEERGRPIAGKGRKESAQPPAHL

compound: c1ccc([C@@H]2C[C@H]2NC2CCNCC2)cc1; assay: log2 fold change, soluble protein after heating vs DMSO (PISA); higher = thermal stabilisation; K562 lysate, 10 uM; active = over 0.2 and 3.5 SD of the protein, either way, in both replicates (recomputed)
Summary of the method: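 Values give the log-two fold change in thermal stability against solvent controls, from duplicates. Crude K562 extract at 1 mg/mL protein, made by dounce homogenisation in PBS pH 7.4 with 1 mM MgCl2, was treated with 10 μM compound for 30 min. After 3 min heating across 48°C-58°C, aliquots were pooled, adjusted to 0.5% NP-40 at 4°C and centrifuged at 21,000xg for 90 min. The supernatant was measured by TMTpro 16plex LC-MS/MS with channel sums equalised.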

Target	log2 fold change
CCDC115 (UniProt Q96NT0)	inactive: -0.026
CCT4 (UniProt P50991)	inactive: -0.032
CCDC85C (UniProt A6NKD9)	inactive: 0.077
CCDC85B (UniProt Q15834)	inactive: -0.034
CCDC124 (UniProt Q96CT7)	inactive: 0.034
CD47 (UniProt Q08722)	inactive: -0.096
CBX5 (UniProt P45973)	inactive: -0.135
CAT (UniProt P04040)	inactive: 0.004
CASK (UniProt O14936)	inactive: 0.039
CASC3 (UniProt O15234)	inactive: -0.039
CBX1 (UniProt P83916)	inactive: 0.13
CCDC57 (UniProt Q2TAC2)	inactive: -0.019
CBX3 (UniProt Q13185)	inactive: -0.183
CASP3 (UniProt P42574)	inactive: 0.103
CBR4 (UniProt Q8N4T8)	inactive: 0.048
CAVIN2 (UniProt O95810)	inactive: 0.011
CD2AP (UniProt Q9Y5K6)	inactive: -0.008
CCDC28B (UniProt Q9BUN5)	inactive: 0.008
CCT8 (UniProt P50990)	inactive: 0.013
CD81 (UniProt P60033)	inactive: -0.037

3 successive records out of the list so far, for reference:
Target	log2 fold change
CCDC115 (UniProt Q96NT0)	inactive: -0.026
CCT4 (UniProt P50991)	inactive: -0.032
CCDC85C (UniProt A6NKD9)	inactive: 0.077

(next part)

Target	log2 fold change
CCDC186 (UniProt Q7Z3E2)	inactive: 0.105
CCNC (UniProt P24863)	inactive: -0.129
CD320 (UniProt Q9NPF0)	inactive: -0.027
CC2D1A (UniProt Q6P1N0)	inactive: -0.001
CD55 isoform 7 (UniProt P08174)	inactive: -0.057
CCDC134 (UniProt Q9H6E4)	inactive: 0.02
CCNB2 (UniProt O95067)	inactive: 0.033
CASP9 (UniProt P55211)	inactive: -0.048
CASP6 (UniProt P55212)	inactive: -0.005
CCNE1 (UniProt P24864)	inactive: -0.141
CCDC88A (UniProt Q3V6T2)	inactive: 0
CC2D1B isoform 2 (UniProt Q5T0F9)	inactive: -0.009
CD63 (UniProt P08962)	inactive: -0.242
CCDC47 (UniProt Q96A33)	inactive: 0.018
CCPG1 isoform 5 (UniProt Q9ULG6)	inactive: -0.026
CCM2 isoform 2 (UniProt Q9BSQ5)	inactive: 0.01
CCS (UniProt O14618)	inactive: -0.01
CCDC9 (UniProt Q9Y3X0)	inactive: -0.065
CCNT1 (UniProt O60563)	inactive: 0.028
